Data from article PMC12763885.
Results are given in words; binding and its absence hold for the method and conditions named. In cells and extracts the contact can be indirect. Some entries that bind do so weakly or less than the wild type. For some assays here: Where a sequence is shown, tags or fusion partners need not be part of it.

Chains of the proteins cited; added tags and fusions are not shown.
UniProt O00429: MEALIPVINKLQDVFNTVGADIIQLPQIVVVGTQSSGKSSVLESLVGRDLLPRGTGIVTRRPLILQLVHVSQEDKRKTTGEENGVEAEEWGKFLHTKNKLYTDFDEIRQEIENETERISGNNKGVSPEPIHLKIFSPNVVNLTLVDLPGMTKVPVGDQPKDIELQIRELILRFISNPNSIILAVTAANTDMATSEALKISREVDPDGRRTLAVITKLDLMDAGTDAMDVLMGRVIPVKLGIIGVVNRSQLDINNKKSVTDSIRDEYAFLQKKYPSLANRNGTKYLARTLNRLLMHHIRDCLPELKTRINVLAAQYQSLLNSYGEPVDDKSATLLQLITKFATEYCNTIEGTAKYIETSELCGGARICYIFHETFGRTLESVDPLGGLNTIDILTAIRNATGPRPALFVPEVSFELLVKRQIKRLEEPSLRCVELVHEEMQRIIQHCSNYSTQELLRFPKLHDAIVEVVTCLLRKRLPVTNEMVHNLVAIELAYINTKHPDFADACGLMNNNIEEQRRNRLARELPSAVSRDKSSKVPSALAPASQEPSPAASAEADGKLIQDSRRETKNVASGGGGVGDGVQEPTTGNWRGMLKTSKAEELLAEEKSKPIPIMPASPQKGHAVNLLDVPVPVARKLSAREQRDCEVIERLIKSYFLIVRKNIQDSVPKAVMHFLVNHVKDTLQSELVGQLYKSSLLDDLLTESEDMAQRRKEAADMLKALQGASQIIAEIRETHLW

Assays:
[1] = biological target: T1, Phosphoglycerate mutase 5 (PGAM5), endogenous (human (endogenous in HepG2)) (UniProt Q96HS1); assay: co-IP; HepG2 cells lysed in Western and IP lysis buffer; lysate with the corresponding antibody and Protein A + G beads overnight at 4 C; immunoblotting; cells overexpressing GSTK1, with GSTK1 knockdown, with stable Flag-PGAM5 or with transiently transfected point mutation plasmids
T1 sequence: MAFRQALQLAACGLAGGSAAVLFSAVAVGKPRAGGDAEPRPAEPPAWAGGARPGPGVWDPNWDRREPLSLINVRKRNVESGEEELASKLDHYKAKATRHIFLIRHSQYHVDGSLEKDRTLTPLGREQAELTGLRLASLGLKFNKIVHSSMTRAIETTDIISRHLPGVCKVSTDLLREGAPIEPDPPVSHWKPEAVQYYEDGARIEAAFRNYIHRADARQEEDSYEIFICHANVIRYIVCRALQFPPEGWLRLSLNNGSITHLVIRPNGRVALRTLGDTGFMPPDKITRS

Flag-PGAM5 = biological target: T2, Flag-PGAM5 (UniProt Q96HS1); assay: as above
T2 sequence: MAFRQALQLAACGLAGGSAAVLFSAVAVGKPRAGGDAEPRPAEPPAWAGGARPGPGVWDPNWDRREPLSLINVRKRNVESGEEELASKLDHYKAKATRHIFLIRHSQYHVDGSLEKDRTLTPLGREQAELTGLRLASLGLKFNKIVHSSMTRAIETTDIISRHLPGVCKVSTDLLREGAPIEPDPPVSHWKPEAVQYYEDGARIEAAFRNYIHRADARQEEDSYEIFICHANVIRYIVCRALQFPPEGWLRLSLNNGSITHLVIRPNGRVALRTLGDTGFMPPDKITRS

Dynamin related protein 1 (DRP1), endogenous (from UniProt O00429 1-736)
binding [1]: binds

B1: Glutathione S-transferase kappa 1 (GSTK1), endogenous (protein, UniProt Q9Y2Q3 1-226)
chain: MGPLPRTVELFYDVLSPYSWLGFEILCRYQNIWNINLQLRPSLITGIMKDSGNKPPGLLPRKGLYMANDLKLLRHHLQIPIHFPKDFLSVMLEKGSLSAMRFLTAVNLEHPEMLEKASRELWMRVWSRNEDITEPQSILAAAEKAGMSAEQAQGLLEKIATPKVKNQLKETTEAACRYGAFGLPITVAHVDGQTHMLFGSDRMELLAHLLGEKWMGPIPPAVNARL
binding (Flag-PGAM5): binds
